These are yes or no findings as the source states them, for the method shown. In cells and extracts the contact can be indirect. Some results given as binding are weak or reduced against the parent protein; the word gives no strength. For part of these data: Tags and fused reporters may be left off the sequences shown.
Key:
FLAG-tagged PACT (human) = target: T1, FLAG-tagged PACT (human) (UniProt O75569); experiment: co-IP; FLAG-tagged DDX3 or PACT precipitated from HEK293T lysate with ANTI-FLAG M2 Affinity Gel, 4 °C, 2 h; blot with anti-Dicer
T1 sequence: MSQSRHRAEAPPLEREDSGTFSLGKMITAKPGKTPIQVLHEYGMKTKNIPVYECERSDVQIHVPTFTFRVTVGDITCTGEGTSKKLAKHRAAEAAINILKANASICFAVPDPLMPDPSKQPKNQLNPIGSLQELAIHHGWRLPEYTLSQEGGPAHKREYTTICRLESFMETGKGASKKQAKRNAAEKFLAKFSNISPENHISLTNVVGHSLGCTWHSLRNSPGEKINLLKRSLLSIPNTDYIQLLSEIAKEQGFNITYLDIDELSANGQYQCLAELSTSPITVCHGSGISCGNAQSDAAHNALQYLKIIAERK

The chains behind the UniProt entries cited, without tags or fusion partners.
UniProt O00571: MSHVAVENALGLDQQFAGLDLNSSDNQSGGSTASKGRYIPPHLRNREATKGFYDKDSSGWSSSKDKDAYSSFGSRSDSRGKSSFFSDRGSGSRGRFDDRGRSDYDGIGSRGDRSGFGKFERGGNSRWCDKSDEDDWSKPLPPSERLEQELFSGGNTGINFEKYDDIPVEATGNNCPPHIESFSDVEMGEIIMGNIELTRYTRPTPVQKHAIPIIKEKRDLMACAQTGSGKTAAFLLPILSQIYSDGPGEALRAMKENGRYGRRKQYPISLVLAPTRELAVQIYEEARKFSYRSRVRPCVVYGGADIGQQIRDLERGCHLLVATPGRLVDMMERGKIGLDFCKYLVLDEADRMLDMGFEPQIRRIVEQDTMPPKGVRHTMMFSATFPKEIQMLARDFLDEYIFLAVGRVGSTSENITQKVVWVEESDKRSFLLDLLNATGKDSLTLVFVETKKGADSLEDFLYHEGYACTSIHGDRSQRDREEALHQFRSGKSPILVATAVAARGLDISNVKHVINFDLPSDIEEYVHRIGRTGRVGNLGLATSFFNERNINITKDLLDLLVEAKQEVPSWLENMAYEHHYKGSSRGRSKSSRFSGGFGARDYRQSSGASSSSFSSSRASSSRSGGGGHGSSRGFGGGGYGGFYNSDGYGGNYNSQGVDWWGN
UniProt Q9UKV8: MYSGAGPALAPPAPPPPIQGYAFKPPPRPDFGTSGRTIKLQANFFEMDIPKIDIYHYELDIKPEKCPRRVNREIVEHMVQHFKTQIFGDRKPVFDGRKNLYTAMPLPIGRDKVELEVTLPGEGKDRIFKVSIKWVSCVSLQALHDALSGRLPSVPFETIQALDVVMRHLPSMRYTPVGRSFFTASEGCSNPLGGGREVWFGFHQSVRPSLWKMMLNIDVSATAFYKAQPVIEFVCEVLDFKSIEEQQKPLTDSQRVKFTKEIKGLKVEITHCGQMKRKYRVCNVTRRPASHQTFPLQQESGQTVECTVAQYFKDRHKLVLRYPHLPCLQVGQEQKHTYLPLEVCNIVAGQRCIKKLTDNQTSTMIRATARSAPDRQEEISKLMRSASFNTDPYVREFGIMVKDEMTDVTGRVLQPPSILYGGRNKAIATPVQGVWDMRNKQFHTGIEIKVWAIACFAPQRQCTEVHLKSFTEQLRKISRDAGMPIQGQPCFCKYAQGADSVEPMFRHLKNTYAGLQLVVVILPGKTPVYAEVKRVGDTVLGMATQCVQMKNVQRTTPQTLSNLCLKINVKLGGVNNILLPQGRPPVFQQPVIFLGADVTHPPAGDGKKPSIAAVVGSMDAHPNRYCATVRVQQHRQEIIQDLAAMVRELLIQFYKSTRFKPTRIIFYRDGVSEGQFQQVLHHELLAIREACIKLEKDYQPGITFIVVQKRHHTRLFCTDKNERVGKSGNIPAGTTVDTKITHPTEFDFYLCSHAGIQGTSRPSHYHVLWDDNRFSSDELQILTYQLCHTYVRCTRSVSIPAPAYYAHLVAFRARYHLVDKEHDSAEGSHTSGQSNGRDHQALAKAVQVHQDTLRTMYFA
UniProt Q9UPY3: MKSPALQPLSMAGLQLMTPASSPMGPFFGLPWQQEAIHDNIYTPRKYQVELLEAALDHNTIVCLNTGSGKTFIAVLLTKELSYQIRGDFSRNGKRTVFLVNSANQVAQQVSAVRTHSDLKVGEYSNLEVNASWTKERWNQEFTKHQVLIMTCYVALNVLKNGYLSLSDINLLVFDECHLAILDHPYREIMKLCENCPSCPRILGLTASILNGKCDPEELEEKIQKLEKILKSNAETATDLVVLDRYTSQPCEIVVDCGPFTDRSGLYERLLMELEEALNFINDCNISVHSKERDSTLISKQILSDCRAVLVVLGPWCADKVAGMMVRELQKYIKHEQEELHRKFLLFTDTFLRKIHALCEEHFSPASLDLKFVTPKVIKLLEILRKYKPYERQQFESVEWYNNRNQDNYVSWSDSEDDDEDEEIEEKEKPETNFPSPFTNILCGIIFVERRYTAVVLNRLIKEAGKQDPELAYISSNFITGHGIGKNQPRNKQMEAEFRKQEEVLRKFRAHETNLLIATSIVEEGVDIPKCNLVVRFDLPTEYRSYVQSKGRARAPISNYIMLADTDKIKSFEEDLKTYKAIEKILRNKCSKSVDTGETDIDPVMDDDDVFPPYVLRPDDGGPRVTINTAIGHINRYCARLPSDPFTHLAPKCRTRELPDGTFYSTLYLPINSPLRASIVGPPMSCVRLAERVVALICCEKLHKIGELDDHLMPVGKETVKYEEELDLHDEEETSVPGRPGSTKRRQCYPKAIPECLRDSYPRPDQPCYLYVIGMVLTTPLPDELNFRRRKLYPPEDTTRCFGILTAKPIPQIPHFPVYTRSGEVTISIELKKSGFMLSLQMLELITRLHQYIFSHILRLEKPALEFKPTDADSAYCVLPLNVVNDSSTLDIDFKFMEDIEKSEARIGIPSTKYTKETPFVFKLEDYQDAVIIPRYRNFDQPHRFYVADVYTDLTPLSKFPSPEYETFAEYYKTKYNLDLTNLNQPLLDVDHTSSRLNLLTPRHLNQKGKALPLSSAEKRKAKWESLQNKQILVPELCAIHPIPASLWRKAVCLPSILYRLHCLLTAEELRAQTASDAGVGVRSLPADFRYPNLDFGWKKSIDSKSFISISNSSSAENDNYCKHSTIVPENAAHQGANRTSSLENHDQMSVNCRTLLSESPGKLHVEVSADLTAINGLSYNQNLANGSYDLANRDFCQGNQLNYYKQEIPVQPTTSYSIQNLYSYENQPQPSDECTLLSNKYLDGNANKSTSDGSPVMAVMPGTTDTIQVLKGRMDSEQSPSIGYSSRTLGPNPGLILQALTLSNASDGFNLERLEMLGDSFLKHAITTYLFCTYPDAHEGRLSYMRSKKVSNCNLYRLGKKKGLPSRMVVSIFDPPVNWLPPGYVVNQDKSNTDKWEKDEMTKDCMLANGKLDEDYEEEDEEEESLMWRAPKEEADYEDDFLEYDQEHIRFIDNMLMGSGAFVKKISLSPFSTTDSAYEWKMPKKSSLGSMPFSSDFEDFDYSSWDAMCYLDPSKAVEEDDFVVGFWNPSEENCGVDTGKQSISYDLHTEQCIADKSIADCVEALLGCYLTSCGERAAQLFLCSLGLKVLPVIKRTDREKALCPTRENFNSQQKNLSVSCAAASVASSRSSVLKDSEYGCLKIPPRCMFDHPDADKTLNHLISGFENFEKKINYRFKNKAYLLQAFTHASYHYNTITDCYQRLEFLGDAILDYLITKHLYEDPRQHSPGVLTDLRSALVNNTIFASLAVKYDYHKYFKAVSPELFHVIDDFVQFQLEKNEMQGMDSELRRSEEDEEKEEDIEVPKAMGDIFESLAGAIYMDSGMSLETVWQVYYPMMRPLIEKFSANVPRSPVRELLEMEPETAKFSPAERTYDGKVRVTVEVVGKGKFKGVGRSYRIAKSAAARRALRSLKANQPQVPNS

FLAG-tagged DDX3 (human) = FLAG-tagged DDX3 (human) (UniProt O00571); experiment: as above
[1] = target: AGO2 (human (endogenous in HEK293T)) (UniProt Q9UKV8); experiment: co-IP; endogenous AGO2 precipitated from HEK293T lysate with anti-AGO2 antibody on Protein A Sepharose (mouse IgG as control); blot with anti-DDX3

| binding (FLAG-tagged PACT (human)) | binding (FLAG-tagged DDX3 (human)) | binding [1] | Substance |
| --- | --- | --- | --- |
| binds | binds weakly |  | Dicer (from UniProt Q9UPY3 1-1922) (enzyme) |
|  |  | binds | DDX3 (endogenous) (from UniProt O00571 1-662) |
